Measurements from patent US7892830B2, “Clonal culture of human pluripotent stem cells” (Wisconsin Alumni Research Foundation, priority 2007, dated 2011).
Counter-ions that a name gives are not always drawn. Some results were stated once for a whole list of compounds, not compound by compound.

These compounds were tested on H1 human ES cells (assay: 6-well cloning efficiency assay in TeSR1 medium on Matrigel, colonies counted manually). Details: defined medium such as TeSR1 on Matrigel-coated culture dishes.
Format: cell-based
Excerpt: As described above, a difficulty in growing pluripotent cells, like ES cells, in culture is their low cloning efficiency. As used herein, “cloning efficiency” means a number of cells individualized by trypsin that form new ES cell colonies divided by the number of individual cells plated in a well of a culture dish. In our prior experience with growing human ES cells in defined and animal-free conditions on a matrix (e.g., Matrigel®), cloning efficiency was very low (i.e., less than 0.1%). This contrasts with prior experience using culture systems based on medium conditioned by exposure to fibroblasts, where the cloning efficiency, while still low (i.e., less than 2%), was high enough to initiate clonal ES cell colonies. As disclosed herein, the addition of a small molecule to the culture medium in which human ES cells are grown permits the ES cell cultures to be clonally cultivated in a manner that is extremely difficult without the addition of the small molecule. Several small molecules are exemplified herein for this purpose.
For these assays, 10,000 cells per well were plated on Matrigel®—coated plates and then treated every other day for a total of four days. with the small molecules as described above. To evaluate the effect of the tested small molecules on cloning efficiency, we manually counted colonies after 10 days.
We determined cloning efficiency (CE; the number of colony forming units (CFU) per number of plated single cells, trypsin/EDTA treated). HA-100 was the first molecule identified in the small molecule screen, following which other structurally similar small molecules were also tested for cloning efficiency.

Row | Compound | cloning efficiency supported
1 | Cc1cncc2cccc(S(=O)(=O)N3CCCN(C(=O)CN)CC3C)c12 (stereo in doubt) [glycyl H-1152, (S)-(+)-2-Methyl-4-glycyl-1-(4-methylisoquinolinyl-5-sulfonyl)homopiperazine dihydrochloride] | > 1%
2 | CC1CNCCN1S(=O)(=O)c1cccc2cnccc12 (stereo not shown) [H-7, 1-(5-isoquinolinesulfonyl)-2-methylpiperazine] | > 1%
3 | NCCNS(=O)(=O)c1cccc2cnccc12 [H-9, N-(2-aminoethyl)-5-isoquinolinesulphonamide dihydrochloride] | > 1%
4 | O=S(=O)(NCCNC/C=C/c1ccc(Br)cc1)c1cccc2cnccc12 [H-89, N-[2-p-bromo-cinnamylamino)ethyl]-5-isoquinolinesulfonamide dihydrochloride] | > 1%
5 | Cl.N=C(N)NCCNS(=O)(=O)c1cccc2cnccc12 [HA-1004, N-(2-guanidinoethyl)-5-isoquinolinesulfonamide hydrochloride] | > 1%
6 | Cl.Cl.O=S(=O)(c1cccc2cnccc12)N1CCCNCC1 [HA-1077, 1-(5-isoquinolinesulfonyl)homopiperazine dihydrochloride] | > 1%
7 | CC1CN(S(=O)(=O)c2cccc3cnccc23)CCN1 (stereo not shown) [iso H-7, 1-(5-isoquinolinesulfonyl)-3-methylpiperazine] | > 1%
